This experiment has as its target soluble fms-like tyrosine kinase 1 (sFlt-1) (human) (UniProt P17948). Description: chemiluminescent sandwich assay on paramagnetic particles; sFlt-1 captured by a monoclonal antibody and detected with PlGF-acridinium.

Protein sequences, listed by entry. Tags and fused reporters are not part of them. Lines headed by an entry give the natural chain unless they say otherwise; changes in a name come on top.
UniProt P17948: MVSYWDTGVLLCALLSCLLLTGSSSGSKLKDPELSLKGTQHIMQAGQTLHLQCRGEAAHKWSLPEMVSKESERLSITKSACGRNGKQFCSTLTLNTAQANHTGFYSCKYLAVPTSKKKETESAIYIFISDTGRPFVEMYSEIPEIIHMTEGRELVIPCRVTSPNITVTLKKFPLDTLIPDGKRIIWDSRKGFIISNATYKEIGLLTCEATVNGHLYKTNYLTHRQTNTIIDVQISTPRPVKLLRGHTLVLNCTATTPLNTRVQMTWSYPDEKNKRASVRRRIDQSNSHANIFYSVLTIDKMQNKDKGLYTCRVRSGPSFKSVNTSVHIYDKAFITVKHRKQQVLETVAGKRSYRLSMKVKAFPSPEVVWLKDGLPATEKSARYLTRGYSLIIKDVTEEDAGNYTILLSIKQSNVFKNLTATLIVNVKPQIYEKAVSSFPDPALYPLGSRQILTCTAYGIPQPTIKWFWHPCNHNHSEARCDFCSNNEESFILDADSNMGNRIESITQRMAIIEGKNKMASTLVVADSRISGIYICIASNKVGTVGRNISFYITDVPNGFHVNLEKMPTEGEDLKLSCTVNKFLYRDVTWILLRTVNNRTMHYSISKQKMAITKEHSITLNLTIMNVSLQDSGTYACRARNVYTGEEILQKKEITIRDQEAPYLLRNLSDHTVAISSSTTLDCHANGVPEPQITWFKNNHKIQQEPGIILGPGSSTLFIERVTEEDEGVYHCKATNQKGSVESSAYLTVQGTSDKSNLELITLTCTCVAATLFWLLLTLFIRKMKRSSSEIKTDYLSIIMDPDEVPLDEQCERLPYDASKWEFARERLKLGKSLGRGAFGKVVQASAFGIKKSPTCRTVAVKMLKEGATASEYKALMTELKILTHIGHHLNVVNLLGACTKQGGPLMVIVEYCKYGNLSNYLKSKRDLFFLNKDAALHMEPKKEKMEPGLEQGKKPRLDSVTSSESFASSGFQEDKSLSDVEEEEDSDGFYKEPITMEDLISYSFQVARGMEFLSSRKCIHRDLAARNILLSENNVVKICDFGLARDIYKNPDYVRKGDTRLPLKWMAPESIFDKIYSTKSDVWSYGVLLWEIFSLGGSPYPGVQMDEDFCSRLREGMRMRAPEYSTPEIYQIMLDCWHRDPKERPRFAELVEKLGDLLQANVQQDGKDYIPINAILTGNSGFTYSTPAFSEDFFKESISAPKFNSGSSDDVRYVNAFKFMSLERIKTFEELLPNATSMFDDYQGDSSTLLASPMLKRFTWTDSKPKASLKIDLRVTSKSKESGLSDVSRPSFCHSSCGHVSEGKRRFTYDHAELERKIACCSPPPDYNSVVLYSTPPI

Results are given in words; binding and its absence hold for the method and conditions named. Some binding calls cover weakened binding; strength is not graded here.

B1: PlGF conjugated to acridinium (ligand)
chain: LPAVPPQQWALSAGNGSSEVEVVPFQEVWGRSYCRALERLVDVVSEYPSEVEHMFSPSCVSLLRCTGCCGDENLHCVPVETANVTMQLLKIRSGDRPSYVELTFSQHVRCECRHSPGRQSPDMPGDFRADAPSFLPPRRSLPMLFRMEWGCALTGSQSAVWPSSPVPEEIPRMHPGRNGKKQQRKPLREKMKPERCGDAVPRR
modifications: conjugated to acridinium (site not stated)
B1: the binding result is listed as “binds”.
